# Literature values in patent US11413241B2, “Method for preparing a composition with a low dissolved oxygen content, comprising acetaminophen, and optionally one or more NSAIDs, and a composition obtained thereof” (Hyloris Developments SA, priority 2017, dated 2022).
# Settings: background statement; cited from earlier work
structure (smiles),measurement,value
CC(C)Cc1ccc(C(C)C(=O)O)cc1 (stereo not shown) [ibuprofen],solubility in water,very poorly soluble
